According to US8895756B2, “Bendamustine pharmaceutical compositions” (priority 2005, dated 2014):
The source gives many values for each of these; only a part stands here.

Experiments:
Format in all cases: physicochemical
[1] = HPLC stability of bendamustine (15 mg/mL, mannitol 25.5 mg/mL) in water at 5° C.; conditions: Water Alone
Experimental: Bendamustine degrades rapidly in water alone and forms predominantly the hydrolysis product, HP1 (monohydroxy bendamustine).
Solutions of bendamustine (15 mg/mL), and mannitol (25.5 mg/mL) were prepared in water at room temperature and immediately placed in an ice bath (to lower the temperature quickly to about 5° C.) for 10 minutes and then refrigerated at 5° C. A sample of each formulation was analyzed by HPLC using the methods described herein after 0, 3, 6 and 24 hours when stored at 5° C.

[2] = HPLC stability of bendamustine (15 mg/mL, mannitol 25.5 mg/mL) in alcohol/water solutions at 5° C.
Experimental: A sample of each formulation was analyzed by HPLC after 0, 3, 6 and 24 hours when stored at 5° C.

[3] = HPLC stability of bendamustine in TBA 20% (v/v) with and without mannitol over 24 hours
Text: FIGS. 3 and 4 show the amount of degradation of bendamustine as measured by HP1 and dimer formation quantified by HPLC (as described herein). HP1 and dimer formation increased as the amount of alcohol concentration decreased regardless of the alcohol. This increase in impurities occurred with an anticipated time dependence (see Tables 3-9).

Cl.Cn1c(CCCC(=O)O)nc2cc(N(CCCl)CCCl)ccc21 [bendamustine, 4-{5-[Bis(2-chloroethyl)amino]-1-methyl-2-benzimidazolyl}butyric acid]
Dimer (%) ([1]; 0 hours): 0.11%
HP1 (%) ([1]; 0 hours): 0.60%
Purity (% Area) ([1]; 0 hours): 99.11 % Area
Dimer (%) ([1]; 3 hours): 0.13%
HP1 (%) ([1]; 3 hours): 0.86%
Purity (% Area) ([1]; 3 hours): 98.83 % Area
Dimer (%) ([1]; 6 hours): 0.17%
HP1 (%) ([1]; 6 hours): 1.22%
Purity (% Area) ([1]; 6 hours): 98.44 % Area
Dimer (%) ([1]; 24 hours): 0.29%
HP1 (%) ([1]; 24 hours): 3.81%
Purity (% Area) ([1]; 24 hours): 95.67 % Area
Purity (% Area) ([2]; 5% Butanol, 0 hours): 99.25 % Area
HP1 (%) ([2]; 5% Butanol, 3 hours): 0.73%
Purity (% Area) ([2]; 5% Butanol, 3 hours): 98.94 % Area
Purity (% Area) ([2]; 30% Butanol (2 layers, vortexed), 6 hours): 99.40 % Area
Purity (% Area) ([2]; 30% Butanol (2 layers, vortexed), 24 hours): 99.00 % Area
HP1 (%) ([3]; TBA 20% (v/v) with Mannitol, 0 hours, reverse phase HPLC): 0.17%
HP1 (%) ([3]; TBA 20% (v/v) with Mannitol, 24 hours @ 5° C., reverse phase HPLC): 1.27%
HP1 (%) ([3]; TBA 20% (v/v) without Mannitol, 0 hours, normal phase HPLC): 0.00%
HP1 (%) ([3]; TBA 20% (v/v) without Mannitol, 24 hours @ 5° C., normal phase HPLC): 1.21%
